# Data as given in US7951752B2, “O-cyclopropyl-carboxanilides and their use as fungicides” (Syngenta Crop Protection, Inc., priority 2002, dated 2011).
# Some entries share one result that the patent states for a list of compounds. Some compounds share one range, which may span the group rather than tell each member.
# Experiments:
# Format in all cases: in vivo
# Pyrenophora teres = assay: Action against Pyrenophora teres/barley (net blotch on barley); conditions: barley plants cv. Express, 0.002% active ingredient, spray; assessed 4 days after inoculation
# Botrytis cinerea [1] = assay: Action against Botrytis cinerea/grape (Botrytis on grapes); conditions: grape seedlings cv. Gutedel, 0.002% active ingredient, spray; assessed after 4 days incubation
# Septoria nodorum = assay: Action against Septoria nodorum/wheat (Septoria leaf spot on wheat); conditions: wheat plants cv. Arina, 0.02% active ingredient, spray; assessed 11 days after inoculation
# Botrytis cinerea [2] = assay: Action against Botrytis cinerea/tomato (Botrytis on tomatoes); conditions: tomato plants cv. Roter Gnom, 0.002% active ingredient, spray; assessed after 4 days incubation
# Puccinia recondita = assay: Action against Puccinia recondita/wheat (brownrust on wheat); conditions: wheat plants cv. Arina, 0.02% active ingredient, spray; assessed 10 days after inoculation
# Botrytis cinerea [3] = assay: Action against Botrytis cinerea/apple (Botrytis on apple fruits); conditions: apple fruit cv. Golden Delicious, 30 μl droplets, 0.002% active ingredient; assessed after 7 days incubation
# Erysiphe graminis = assay: Action against Erysiphe graminis/barley (powdery mildew on barley); conditions: barley plants cv. Express, 0.02% active ingredient, spray; assessed after 6 days incubation
# Venturia Inaequalis = assay: Action against Venturia inaequalis/apple (scab on apple); conditions: apple seedlings cv. McIntosh, 0.02% active ingredient, spray
# Podosphaera leucotricha = assay: Action against Podosphaera leucotricha/apple (powdery mildew on apple); conditions: apple seedlings cv. McIntosh, 0.002% active ingredient, spray; assessed after 12 days incubation
Structure (SMILES),infestation (Pyrenophora teres) [%],infestation (Botrytis cinerea [1]) [%],infestation (Septoria nodorum) [%],infestation (Botrytis cinerea [2]) [%],infestation (Puccinia recondita),infestation (Botrytis cinerea [3]) [%],infestation (Erysiphe graminis) [%],infestation (Venturia Inaequalis) [%],infestation (Podosphaera leucotricha) [%]
Cn1cc(C(=O)Nc2ccccc2C2CC2C2CCCC2)c(C(F)(F)F)c1 (mixture of isomers) [Compound 3.39],< 20,< 10,< 20,< 10,,,,,
O=C(Nc1ccccc1C1CC1C1CC1)c1cccnc1Cl (racemic) [Compound 5.21c],< 20,< 10,,< 10,0-5%,< 10,,,
CC(C)CC1CC1c1ccccc1NC(=O)c1cn(C)nc1C(F)(F)F (mixture of isomers) [Compound 2.17],< 20,< 10,< 20,< 10,0-5%,< 10,< 20,< 20,< 20
Cn1cc(C(=O)Nc2ccccc2C2CC2C2CCCCC2)c(C(F)(F)F)c1 (mixture of isomers) [Compound 3.45],< 20,,< 20,< 10,0-5%,< 10,< 20,< 20,< 20
Cc1nc(C(F)(F)F)c(C(=O)Nc2ccccc2C2CC2CC(C)C)s1 (mixture of isomers) [Compound 4.10],< 20,< 10,< 20,< 10,0-5%,< 10,< 20,,< 20
Cn1cc(C(=O)Nc2ccccc2C2CC2C2CC2)c(C(F)(F)F)c1 (mixture of isomers) [Compound 3.33],,< 10,< 20,,0-5%,< 10,,< 20,< 20
Cc1nc(C(F)(F)F)c(C(=O)Nc2ccccc2C2CC2C(C)(C)C)s1 (mixture of isomers) [Compound 4.12],< 20,< 10,< 20,< 10,0-5%,< 10,< 20,,< 20
Cn1cc(C(=O)Nc2ccccc2C2CC2C2CC2)c(C(F)(F)F)n1 (mixture of isomers) [Compound 2.33],< 20,,< 20,< 10,0-5%,< 10,,< 20,< 20
Cn1cc(C(=O)Nc2ccccc2C2CC2C(C)(C)C)c(C(F)(F)F)c1 (mixture of isomers) [Compound 3.23],< 20,< 10,< 20,< 10,0-5%,< 10,< 20,< 20,< 20
O=C(Nc1ccccc1C1CC1c1ccc(F)cc1)c1cccnc1Cl (racemic) [Compound 5.37c],< 20,< 10,,< 10,0-5%,,,,
Cn1cc(C(=O)Nc2ccccc2C2CC2C2CCCCC2)c(C(F)(F)F)n1 (mixture of isomers) [Compound 2.45],< 20,< 10,< 20,< 10,0-5%,< 10,< 20,< 20,< 20
Cc1nc(C(F)(F)F)c(C(=O)Nc2ccccc2C2CC2C2CCCCC2)s1 (mixture of isomers) [Compound 4.26],< 20,< 10,,< 10,0-5%,< 10,,,
"CC(C)CC1CC1c1ccccc1NC(=O)c1cn(C)cc1C(F)(F)F (stereo not shown) [Compound 3.17, 1-methyl-4-trifluoromethyl-1H-pyrrole-3-carboxylic acid [2-(2-isobutyl-cyclopropyl)phenyl]amide]",< 20,< 10,< 20,< 10,0-5%,< 10,< 20,< 20,< 20
Cn1cc(C(=O)Nc2ccccc2C2CC2C2(C)CC2)c(C(F)(F)F)n1 (racemic) [Compound 2.76t],< 20,,< 20,< 10,0-5%,< 10,,,
Cn1cc(C(=O)Nc2ccccc2C2CC2C2(C)CC2)c(C(F)F)n1 (racemic) [Compound 2.77c],< 20,< 10,< 20,< 10,0-5%,< 10,< 20,,
CC(C)C1CC1c1ccccc1NC(=O)c1cn(C)cc1C(F)(F)F (mixture of isomers) [Compound 3.5],< 20,< 10,< 20,< 10,0-5%,< 10,< 20,< 20,< 20
Cn1cc(C(=O)Nc2ccccc2C2CC2C2CCCCC2)c(C(F)F)n1 (racemic) [Compound 2.46t],< 20,< 10,< 20,< 10,0-5%,< 10,< 20,< 20,< 20
O=C(Nc1ccccc1C1CC1c1ccc(F)cc1)c1cccnc1Cl (mixture of isomers) [Compound 5.37],,,,,,< 10,,,
CC(C)CC1CC1c1ccccc1NC(=O)c1cn(C)nc1C(F)F (mixture of isomers) [Compound 2.18],< 20,< 10,< 20,< 10,0-5%,< 10,< 20,< 20,< 20
CC(C)C1CC1c1ccccc1NC(=O)c1cccnc1Cl (mixture of isomers) [Compound 5.5],< 20,< 10,,< 10,0-5%,< 10,,,
Cn1cc(C(=O)Nc2ccccc2C2CC2C2(C)CC2)c(C(F)(F)F)n1 (racemic) [Compound 2.76c],,< 10,,,,,,,
CC(C)CC1CC1c1ccccc1NC(=O)c1cccnc1Cl (mixture of isomers) [Compound 5.12],< 20,< 10,,< 10,0-5%,< 10,,,
Cn1cc(C(=O)Nc2ccccc2C2CC2C(C)(C)C)c(C(F)F)n1 (mixture of isomers) [Compound 2.24],< 20,< 10,< 20,< 10,0-5%,< 10,< 20,< 20,< 20
Cn1cc(C(=O)Nc2ccccc2C2CC2C2(C)CC2)c(C(F)(F)F)c1 (mixture of isomers) [Compound 3.76],< 20,< 10,< 20,< 10,0-5%,< 10,,,
Cn1cc(C(=O)Nc2ccccc2C2CC2C(C)(C)C)c(C(F)(F)F)n1 (mixture of isomers) [Compound 2.23],< 20,< 10,< 20,< 10,0-5%,< 10,< 20,< 20,< 20
